Laboratory results: PubChem BioAssay AID493246 (Drosophila RNAi Screening Center, 2011)
In all, the deposit lists about 21,000 reagents; this is an unselected part of those that have a named target and a result. In the full data, 429 (2%) were called active. 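Values are raw and not normalised between plates; calls rest on per-plate z-scores that were not deposited.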 Not given: the amount of reagent, the time to read-out.

Purpose: 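Identify essential fly genes by loss of cell viability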 (primary screen)
System: Drosophila Kc and S2R+ cells
Knock-down reagent: long dsRNA against Drosophila genes
Read-out: 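Cell number per well after knock-down, printed as raw plate values; calls were based on per-plate z-scores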
Direction: Kc cell number and S2R+ cell number: higher = more cells remaining
Hit rule: 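Active when the per-plate z-score of cell number is 3 or more in the direction of fewer cells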

For Sidpn (GeneID 35168) [DRSC02056], the entry reads Kc cell number, rep 1 = 1.37e6; Kc cell number, rep 2 = 1.48e6; S2R+ cell number, rep 1 = 1.31e6; S2R+ cell number, rep 2 = 1.28e6; inactive.
For lgs (GeneID 43791) [DRSC17152] the deposit lists Kc cell number, rep 1 = 5.01e5; S2R+ cell number, rep 1 = 8.17e5; inactive.
With knock-down of Su(z)12 (GeneID 48071) [DRSC11293], the screen gave Kc cell number, rep 1 = 1.28e6; Kc cell number, rep 2 = 1.35e6; S2R+ cell number, rep 1 = 1.28e6; S2R+ cell number, rep 2 = 1.39e6; inactive.
Against Taf12L (GeneID 33672) [DRSC00467], the values are Kc cell number, rep 1 = 1.68e6; Kc cell number, rep 2 = 1.52e6; S2R+ cell number, rep 1 = 1.10e6; S2R+ cell number, rep 2 = 1.25e6; inactive.
CG31788 (GeneID 318942) [DRSC01630] scored Kc cell number, rep 1 = 1.58e6; Kc cell number, rep 2 = 1.65e6; S2R+ cell number, rep 1 = 9.79e5; S2R+ cell number, rep 2 = 1.25e6; inactive.
Depletion of CG33235 (GeneID 2768871) [DRSC19641] gave: Kc cell number, rep 1 = 1.59e6; Kc cell number, rep 2 = 1.54e6; S2R+ cell number, rep 1 = 1.03e6; S2R+ cell number, rep 2 = 1.11e6; inactive.
koi (GeneID 35594) [DRSC04980] scored Kc cell number, rep 1 = 1.54e6; Kc cell number, rep 2 = 1.67e6; S2R+ cell number, rep 1 = 1.26e6; S2R+ cell number, rep 2 = 1.34e6; inactive.
Against Rgk1 (retired record) (GeneID 37219) [DRSC07343], the entry reads Kc cell number, rep 1 = 1.39e6; Kc cell number, rep 2 = 1.53e6; S2R+ cell number, rep 1 = 1.15e6; S2R+ cell number, rep 2 = 1.21e6; inactive.
Rgk1 (retired record) (GeneID 37219) [DRSC07344] gave Kc cell number, rep 1 = 4.85e5; Kc cell number, rep 2 = 1.31e6; S2R+ cell number, rep 1 = 4.69e5; S2R+ cell number, rep 2 = 5.53e5; active.
With knock-down of Wnt2 (GeneID 35975) [DRSC05160] the results were Kc cell number, rep 1 = 1.43e6; Kc cell number, rep 2 = 1.43e6; S2R+ cell number, rep 1 = 9.43e5; S2R+ cell number, rep 2 = 1.01e6; inactive.
For Wnt2 (GeneID 35975) [DRSC07574], the values are Kc cell number, rep 1 = 1.57e6; Kc cell number, rep 2 = 1.62e6; S2R+ cell number, rep 1 = 1.26e6; S2R+ cell number, rep 2 = 1.39e6; inactive.
foxo (GeneID 41709) [DRSC13017] showed Kc cell number, rep 1 = 5.66e5; Kc cell number, rep 2 = 5.93e5; S2R+ cell number, rep 1 = 5.10e5; S2R+ cell number, rep 2 = 6.03e5; active.
Against foxo (GeneID 41709) [DRSC15463], the values are Kc cell number, rep 1 = 1.72e6; Kc cell number, rep 2 = 1.52e6; S2R+ cell number, rep 1 = 1.23e6; S2R+ cell number, rep 2 = 1.23e6; inactive.
After knock-down of CG3408 (GeneID 39107) [DRSC10360] the results were Kc cell number, rep 1 = 1.28e6; Kc cell number, rep 2 = 1.34e6; S2R+ cell number, rep 1 = 1.23e6; S2R+ cell number, rep 2 = 1.33e6; inactive.
After knock-down of Targ (GeneID 36630) [DRSC06206], the record shows Kc cell number, rep 1 = 1.54e6; Kc cell number, rep 2 = 1.48e6; S2R+ cell number, rep 1 = 1.13e6; S2R+ cell number, rep 2 = 1.15e6; inactive.
After knock-down of Jon65Ai (GeneID 38685) [DRSC09731], the record shows Kc cell number, rep 1 = 1.40e6; Kc cell number, rep 2 = 1.45e6; S2R+ cell number, rep 1 = 1.15e6; S2R+ cell number, rep 2 = 1.18e6; inactive.
With knock-down of CG18823 (GeneID 59184) [DRSC18168] the results were Kc cell number, rep 1 = 1.65e6; Kc cell number, rep 2 = 1.65e6; S2R+ cell number, rep 1 = 1.08e6; S2R+ cell number, rep 2 = 1.19e6; inactive.
Knock-down of SiaT (GeneID 37950) [DRSC04494] came out at: Kc cell number, rep 1 = 1.60e6; Kc cell number, rep 2 = 1.66e6; S2R+ cell number, rep 1 = 1.34e6; S2R+ cell number, rep 2 = 1.49e6; inactive.
Silencing of haf (GeneID 33339) [DRSC00381] resulted in: Kc cell number, rep 1 = 1.56e6; Kc cell number, rep 2 = 1.54e6; S2R+ cell number, rep 1 = 1.12e6; S2R+ cell number, rep 2 = 1.31e6; inactive.
Knock-down of CkIIbeta2 (GeneID 37300) [DRSC07361] resulted in: Kc cell number, rep 1 = 1.64e6; Kc cell number, rep 2 = 1.68e6; S2R+ cell number, rep 1 = 1.24e6; S2R+ cell number, rep 2 = 1.46e6; inactive.
After knock-down of CG14174 (GeneID 39139) [DRSC10175] the results were Kc cell number, rep 1 = 1.19e6; Kc cell number, rep 2 = 1.19e6; S2R+ cell number, rep 1 = 1.26e6; S2R+ cell number, rep 2 = 1.34e6; inactive.

Taken from above:
Result of CG18823 (GeneID 59184) [DRSC18168] in “Kc cell number, rep 2”: 1.65e6
Result of Rgk1 (retired record) (GeneID 37219) [DRSC07343] under “S2R+ cell number, rep 2”: 1.21e6
Value for foxo (GeneID 41709) [DRSC15463] under “Kc cell number, rep 2”: 1.52e6
